{"source": "PubChem BioAssay AID1739", "about": "(National Center for Advancing Translational Sciences (NCATS), 2009)", "note": "Inconclusive results, whose numbers are uncertain, are shown with a selection of clear calls. Potencies beside an inconclusive call are fits to weak or partial responses and may not hold up. Calls of active or inactive are those of the source. The call rests on the fitted dose curve; in most records, active means well fitted inhibition curve with a large enough effect; inconclusive means small, poorly fitted or top-dose-only effect; inactive means flat fitted curve, though single readings scatter."}
{"assay": "Counterscreen Assay for Enhancers of SMN2 Splice Variant Expression: Modulation of SMN1 Expression", "details": "HEK293 SMN1-luciferase reporter, luminescence, 30-36 h", "description": "NIH Chemical Genomics Center [NCGC] NIH Molecular Libraries Probe Production centers Network [MLPCN] MLPCN Grant: R03 MH084179-01 Assay Submitter (PI): Elliot Androphy NCGC Assay Overview: Spinal muscular atrophy (SMA) is caused by insufficient levels of the survival motor neuron protein SMN. The SMN locus on chromosome 5q13 contains two inverted copies of SMN called SMN1 and SMN2 which are 99% identical at the amino acid level. SMN1 is a fully functional protein and SMN2 skips exon 7 90% of the time. Skipping of exon 7 produces non-functional protein product. 10% of the SMN2 protein includes exon 7 and is fully functional. In the SMA disease state, mutations in the SMN1 locus are the cause of the disease state. Because only 10% of SMN2 is of the fully functional form, it is not sufficient to overcome the deficiency produced by the loss of the SMN1 product. A therapy that either increase the amount of SMN2 product made or to increase the inclusion of exon 7 has been proposed for the treatment of SMA. […]\nNCGC Assay Protocol Summary: This screen utilizes a luciferase reporter gene assay, combining the promoter with the major portion of the native SMN1 cDNA (exons 1 -7, intron 8 , exon 8 fused to luciferase) stably expressed in HEK293 cells. […] Assay media contained DMEM w/ glutamax (-phenol red) 10% FCS, 1x pen strep, 1x pyruvate Sequence, Parameter, Value, Description (1) Cells, 5 uL, 2000 cells/well, 1536 TC treated White solid bottom plate (2) Time, 10-12 hours, 37C 5% CO2 (3) Compound, 23 nl, MLSMR Library (4) Control Compound, 23 nL, Sodium butyrate st 4.5mM (final) conc (5) Time, 30-36 hours, 37C 5% CO2 (6) Reagent, 3 ul, One Glo (TM) from Promega (7) Time, 5-15 minutes, Room temp (8) Detector, Viewlux: luminescent read, 60 second integration, high speed 2x binning Keywords: Spinal muscular atrophy, SMA, SMN2, high throughput screening, MLSMR, MLPCN, NIH Roadmap, qHTS and NCGC"}
{"smiles": "O=C(C1CCN(c2nc3ccc(Br)cc3s2)CC1)N1CCC2(CC1)OCCO2", "Potency": "inconclusive: 1580 nM [inhibitor, full curve, poor fit]"}
{"smiles": "C[C@@H]1O[C@@H](O[C@H]2C[C@@H](O)[C@]3(CO)[C@H]4[C@H](O)C[C@]5(C)[C@@H](C6COC(=O)C6)CC[C@]5(O)[C@@H]4CC[C@]3(O)C2)[C@H](O)[C@H](O)[C@H]1O", "note": "(stereo partly drawn)", "Potency": "inconclusive: 1410 nM [inhibitor, full curve, poor fit]"}
{"smiles": "CC[C@]1(O)CC(O[C@@H]2CC(N(C)C)C(O)C(C)O2)c2c(cc3c(c2O)C(=O)c2c(O)cccc2C3=O)C1C(=O)OC", "note": "(stereo partly drawn)", "Potency": "active: 1120 nM"}
